# Literature values as cited in US6514536B2, “Drug preparations for treating sexual dysfunction” (L.A.M. Pharmaceutical Corporation, priority 1998, dated 2003).
# For at least one compound, name, drawing or mass did not settle the structure.
compound,measurement,value
"CCCCCC(=O)/C=C/[C@H]1[C@H](O)CC(=O)[C@@H]1CCCCCCC(=O)O [Example 15-keto-PGE1, 15-keto-PGE1]",biological activity retained relative to PGE1,1-2%
